Residue numbers refer to the chain shown, from its start. Results are given in words; binding and its absence hold for the method and conditions named. Some binding calls cover weakened binding; strength is not graded here.

Protein sequences, listed by entry. Tags and fused reporters are not part of them. Residues count along the entry.
UniProt Q8WTT0, residues 45-213: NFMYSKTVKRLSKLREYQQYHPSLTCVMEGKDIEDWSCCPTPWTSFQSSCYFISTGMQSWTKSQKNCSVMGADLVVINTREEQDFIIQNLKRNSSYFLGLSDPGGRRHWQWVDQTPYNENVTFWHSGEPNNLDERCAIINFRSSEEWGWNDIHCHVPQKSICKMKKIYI

B1: Hu033-02 (antibody, IgG1, V domains shown)
VH: EVQLVESGGGLVKPGGSLRLSCAASGFTFSSYGMSWVRQAPGKGLEWVSTISSGDSYTYYPDSVKGRFTISRDNAKNSLYLQMNSLRAEDTAVYYCARQIYYDYAYYFDFWGQGTTVTVSS
VL: DIVLTQSPASLAVSPGQRATITCRASESVSFRTSHLMHWYQQKPGQPPKLLIYGASNLESGVPARFSGSGSETDFTLTINPVEAEDTANYYCQQSIEDPPTFGGGTKVEIK
B2: Hu033-23 (antibody, IgG1, V domains shown)
VH: B1 VH with S30R, G44R, R87K
VL: EIVLTQSPATLSLSPGERATLSCRASESVSFRTSHLMHWYQQKPGQAPRLLIYGASNLESGIPARFSGSGSGTDFTLTISRLEPEDFAVYYCQQSIEDPPTFGGGTKVEIK
B3: Hu033-12 (antibody, IgG1, V domains shown)
VH: B1 VH with S30R, G44R
VL: DIVMTQSPDSLAVSLGERATINCRASESVSFRTSHLMHWYQQKPGQPPKLLIYGASNLESGVPDRFSGSGSGTDFTLTISSLQAEDVAVYYCQQSIEDPPTFGGGTKVEIK
B4: Hu033-04 (antibody, IgG1, V domains shown)
VH: B1 VH
VL: B3 VL
B5: Hu033-08 (antibody, IgG1, V domains shown)
VH: B1 VH
VL: B2 VL with G72E, Y91F
B6: Hu033-10 (antibody, IgG1, V domains shown)
VH: B1 VH with S30R, G44R
VL: B1 VL
B7: Hu033-16 (antibody, IgG1, V domains shown)
VH: B1 VH with S30R, G44R
VL: B2 VL with G72E, Y91F
B8: Hu033-06 (antibody, IgG1, V domains shown)
VH: B1 VH
VL: B3 VL with M4L, G72E, S81P, Y91F
B9: Hu033-15 (antibody, IgG1, V domains shown)
VH: B1 VH with S30R, G44R
VL: B2 VL
B10: Hu033-13 (antibody, IgG1, V domains shown)
VH: B1 VH with S30R, G44R
VL: B3 VL with M4L, Y91F

The target of the experiment is Recombinant Human BDCA2 (human) (UniProt Q8WTT0). As to the kind of experiment: SPR. On the technique in general: In SPR one partner is held on a chip, and binding of the other changes the refractive index at the surface.
As for B1, the binding result is reported as “binds”. The value for B2 was “binds”.

For the molecule B3, the binding result was “binds”. The same measure for B4: “binds”. The value for B5 was “binds”; that for B6 was “binds”; that for B7 was “binds”. The same measure for B8: “binds”. Consider B9, for which the binding entry is given as “binds”. The value for B10 was “binds”.

The record behind these values is US20250346673A1.
